Reference: US20170368119A1, “METHODS AND COMPOSITIONS FOR TREATING C-MET ASSOCIATED CANCERS” (YEASTERN BIOTECH CO., LTD, priority 2014, published 2017)
Some of these results come from one statement about several compounds together.

B1: FIP-gmi: fungal immunomodulatory protein from Ganoderma microsporum, SEQ ID NO: 6 (protein, listed as Ganoderma microsporum)
chain: MSDTALIFTLAWNVKQLAFDYTPNWGRGRPSSFIDTVTFPTVLTDKAYTYRVVVSGKDLGVRPSYAVESDGSQKINFLEYNSGYGIADTNTIQVYVIDPDTGNNFIVAQWN
B2: FIP-vvo: fungal immunomodulatory protein from Volvariella volvacea, SEQ ID NO: 3 (protein, listed as Volvariella volvacea)
chain: STDLTQLLFFIAYNLQKVNFDYTPQWQRGNPSSYIDAVVFPRVLTNKAYQYRVVTGDKDLGIKPSYSVQADGSQKVNLLEYNGGYGVADTTTIKIYVVDPSNGNQYLIAQWK

Tests used:
HCC329 = assay: transwell migration assay, HCC329; assay type: cell-based, human; conditions: 48 hours
Method: (§1) Further, the effects of the three FIPs on migration of both HCC cells were examined. HCC372 and HCC329 cells were seeded on a 24-well transwell migration insert (Nalge Nunc International Corp., Rochester, N.Y., USA) in a complete medium for 24 hours. After treatment with FIP-gmi (3 μg/ml), FIP-fve (10 μg/ml) and FIP-vvo (2.5 μg/ml) for 48 hours, cells that had migrated to the underside of the insert membrane were stained with 0.3% crystal violet. The cells on the topside of the insert membrane were rubbed with a cotton swab. The migrated cells on the underside were imaged using phase contrast microscopy with 200× magnification.

HCC372 = assay: transwell migration assay, HCC372; assay type: cell-based, human; conditions: 48 hours
Method: as §1

Molecule	suppression of cell migration (transwell) (HCC329; FIP-gmi 3 μg/ml)	suppression of cell migration (transwell) (HCC372; FIP-gmi 3 μg/ml)	suppression of cell migration (transwell) (HCC329; FIP-vvo 2.5 μg/ml)	suppression of cell migration (transwell) (HCC372; FIP-vvo 2.5 μg/ml)
B1	95-99%	95-99%		
B2			95-99%	95-99%
